Record: PubChem BioAssay AID1259254 (NCATS, 2017)
Test: 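Finding genes that stop cells copying their DNA twice in one cycle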 (primary screen). Cells: human HCT116 colorectal cancer cells. Knock-down reagent: single siRNA against human genes. Timing: 3 days. Measurement: 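Nuclei stained with Hoechst and imaged; cell-cycle phase assigned by DNA content; G2 share scaled per plate, non-targeting siRNA 0%, GMNN siRNA 100%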. Scale: G2 robust z-score: higher = more G2 cells, more excess DNA replication. Hit rule: 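Active siRNAs have a G2 robust z of 5 or more median absolute deviations over the median, which in these data means about 38% or higher of GMNN control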.
Here is a random part of about 59,000 deposited reagents. Of all reagents, about 1,550 (2.6%) were called active. 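G2 share is only a proxy for re-replication; each gene was hit by three separate siRNAs, and active genes were retested.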 Entries without a mark were called inactive. The numbers tell different reagents against one gene apart. Not all columns of the deposit are shown. Not stated in the record: the amount of reagent.

G2 robust z-score, by gene and reagent
NID1 (nidogen 1): #1 0.324; #2 -0.542; #3 -0.292
BARX2 (BARX homeobox 2): #1 -0.0296; #2 -0.73; #3 -0.689
FLG (filaggrin): #1 0.19; #2 -1.01; #3 0.222
SELENOS (selenoprotein S): #1 0.107; #2 -0.145; #3 0.227
SORD (sorbitol dehydrogenase): #1 3.42; #2 1.83; #3 -0.611
SCTR (secretin receptor): #1 0.896; #2 1.86; #3 0.187
TPTE2P2 (TPTE2 pseudogene 2): #1 -0.123; #2 0.871; #3 1.86
TMEM61 (transmembrane protein 61): #1 1.03; #2 2.49; #3 -0.52
CYP2W1 (cytochrome P450 family 2 subfamily W member 1): #1 -0.313; #2 -0.41; #3 -0.814
LOC645188: #1 0.00342; #2 3.09; #3 1.26
FBXO3 (F-box protein 3): #1 2.64; #2 0.808; #3 -0.784
KCNJ16 (potassium inwardly rectifying channel subfamily J member 16): #1 -0.293; #2 -0.23; #3 -0.151
RIMS2 (regulating synaptic membrane exocytosis 2): #1 -0.494; #2 -0.0784; #3 2.51
LAGE3 (L antigen family member 3): #1 -0.581; #2 3.04; #3 1.78
RNPS1P1 (RNA binding protein with serine rich domain 1 pseudogene 1): #1 -0.588; #2 -0.292; #3 -0.46
SLC19A2: #1 -0.96; #2 0.281; #3 4.29
ZFX (zinc finger protein X-linked): #1 0.32; #2 -1.3; #3 0.00023
MYEOV (myeloma overexpressed): #1 0.151; #2 3.34; #3 2.1
MTURN (maturin, neural progenitor differentiation regulator homolog): #1 -0.059; #2 0.455; #3 0.00867
NRAP (nebulin related anchoring protein): #1 -0.179; #2 1.08; #3 -0.878
CAV3 (caveolin 3): #1 0.522; #2 0.377; #3 -0.291
KRTAP12-2 (keratin associated protein 12-2): #1 2.24; #2 1.12; #3 -0.394
LAMC3 (laminin subunit gamma 3): #1 -0.632; #2 1.56; #3 -0.775
